Experimental data reported in PubChem BioAssay AID270 (DTP/NCI, 2004).
The list shows only some results of the screen, not a fair sample: it is rich in T/C values a quarter to a half above the control, in often repeated tests (any T/C) and in doses without a T/C. Other doses and runs of a compound stand elsewhere. T/C: endpoint of the treated group in % of that of the vehicle group. Some doses have a count of surviving animals in place of a T/C: the source files T/C as zero there, which appears to mark a toxic dose or a test without result, not a measured value. Some doses without a T/C left all or most animals alive at the check, yet need not have been tolerated: survival well below the control is almost never listed, so the zero probably covers shortened survival too. Counts of survivors are from the toxicity check (mostly the fifth day) where no day follows; animals may have died later. Schedule codes are those of the source, taken here to give the interval after Q, in days (D) or hours (H), and the number of doses after X. For survival time, the PubChem record calls one and a half times the control and up active, and a quarter to a half above the control has no call in these data; cut-offs in other NCI protocols can differ.

Tested on: BDF1 mice, s.c. Lewis lung carcinoma, T/C %
Assay: NCI In Vivo Anticancer Drug Screen. Data for tumor model Lewis Lung Carcinoma (subcutaneous) in B6D2F1 (BDF1) mice
How it was run: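 Antitumor effect in vivo is scored from survival or tumor burden, reported as treated relative to vehicle controls.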

## C=C1C(=O)OC2CC1C(O)C/C(C)=C/CC/C(C)=C/C(O)CC2C (centres undefined)
T/C endpoint: median survival time, dose: 50.0 mg/kg/injection, schedule: Q01DX009 (ip), vehicle: Klucel (hydroxypropylcellulose) (HPC), higher T/C = longer survival
  survivor count: 9 of 10

## CCCCn1ccnc1C
T/C endpoint: median survival time, dose: 6.25 mg/kg/injection, schedule: Q01DX009 (ip), vehicle: saline, higher T/C = longer survival
  T/C: 127 % of control

## CC1(C)N=C(N)N=C(N)N1c1cccc(Br)c1
T/C endpoint: mean tumor weight, dose: 25.0 mg/kg/injection, schedule: Q01DX011 (ip), vehicle: other, higher T/C = larger tumour
  survivor count: 3 of 6
T/C endpoint: mean tumor weight, dose: 100.0 mg/kg/injection, schedule: Q01DX011 (ip), vehicle: other, higher T/C = larger tumour
  survivor count: 0 of 6
T/C endpoint: mean tumor weight, dose: 200.0 mg/kg/injection, schedule: Q01DX011 (ip), vehicle: other, higher T/C = larger tumour
  survivor count: 0 of 6

## N#Cc1ncc(C(Cl)Cl)nc1Cl
T/C endpoint: median survival time, dose: 100.0 mg/kg/injection, schedule: Q01DX009 (ip), vehicle: saline with Tween-80, higher T/C = longer survival
  survivor count: 10 of 10
T/C endpoint: median survival time, dose: 200.0 mg/kg/injection, schedule: Q01DX009 (ip), vehicle: saline with Tween-80, higher T/C = longer survival
  survivor count: 4 of 10

## Nc1nc(=S)c2ncn(C3CC(O)C(CO)O3)c2[nH]1 (centres undefined)
T/C endpoint: median survival time, dose: 32.0 mg/kg/injection, schedule: Q01DX009 (ip), vehicle: saline, higher T/C = longer survival
  T/C: 149 % of control

## C=C(C)C1CC=C(C)CC1 (centres undefined)
T/C endpoint: mean tumor weight, dose: 400.0 mg/kg/injection, schedule: Q01DX011 (ip), vehicle: carboxymethylcellulose (CMC), higher T/C = larger tumour
  survivor count: 2 of 6

## ClCCN(CCCl)CC(Cl)COc1cccc2ccccc12 (centres undefined)
T/C endpoint: median survival time, dose: 40.0 mg/kg/injection, schedule: Q01DX009 (ip), vehicle: Klucel (hydroxypropylcellulose) (HPC), higher T/C = longer survival
  survivor count: 10 of 10

## CCN(CC)CCN1C(=O)c2cccc3cccc(c23)C1=O
T/C endpoint: mean tumor weight, dose: 165.0 mg/kg/injection, schedule: Q01DX011 (ip), vehicle: saline, higher T/C = larger tumour
  survivor count: 0 of 6

## CC(=O)c1c(O)c(C)c(O)c(Cc2c(O)c3c(c(C(=O)/C=C/c4ccccc4)c2O)OC(C)(C)C=C3)c1O
T/C endpoint: mean tumor weight, dose: 50.0 mg/kg/injection, schedule: Q01DX011 (ip), vehicle: saline, higher T/C = larger tumour
  survivor count: 0 of 6

## COc1ccc(CC2C(=O)NC(C)C(=O)N(C)C3Cc4ccc(cc4)Oc4cc(ccc4O)CC(C(=O)NC(C)C(=O)NC(C)C(=O)N2C)N(C)C3=O)cc1 (centres undefined)
T/C endpoint: median survival time, dose: 0.25 mg/kg/injection, schedule: Q01DX009 (ip), vehicle: saline, higher T/C = longer survival
  T/C: 128 % of control
T/C endpoint: median survival time, dose: 0.5 mg/kg/injection, schedule: Q01DX009 (ip), vehicle: saline, higher T/C = longer survival
  T/C: 126 % of control
